Test results as given in patent US10179120B2, “Dosage regimen of ferric trimaltol” (Iron Therapeutics Holdings AG, priority 2014, dated 2019).

Assay: Example 2: open-label, randomised, single and repeat dose Phase I pharmacokinetic study in subjects with iron deficiency
Format: in vivo, human
Details: over time and across dose groups
Experimental: These studies were primarily pharmacokinetic and conducted in subjects with iron deficiency having active inflammatory disease or acute chronic inflammation. An open-label, randomised, single and repeat dose parallel group Phase I pharmacokinetic study was carried out to evaluate the effect of single and repeated twice daily (bid) oral doses of ST10 at 30 mg, 60 mg and 90 mg for 8 days.
24 subjects with iron deficiency (with or without anaemia) were randomly allocated to one of the three ST10 dose groups as follows:
Group 1: 9 subjects received ST10, 30 mg twice daily for 7 days (days 1-7) plus a final 30 mg dose on the morning of day 8.
Group 2: 8 subjects received ST10, 60 mg twice daily for 7 days (days 1-7) plus a final 60 mg dose on the morning of day 8.
Group 3: 7 subjects received ST10, 90 mg twice daily for 7 days (days 1-7) plus a final 90 mg dose on the morning of day 8.
On day 1, following fasting for at least 1.5-2 hours beforehand, ST10 was administered (30 mg, 60 mg or 90 mg) and blood samples collected over the following 6 h for analysis. […]
Serum concentrations of transferrin, total iron binding capacity (TIBC), ferritin and soluble transferrin receptor; and reticulocyte haemoglobin concentrations (CHr) in whole blood were measured by central laboratories using appropriately validated methods. […]

ferric trimaltol [ST10]
Soluble transferrin receptor, mean concentration: approximately 4 mg/L
Total iron binding capacity, mean concentration: approximately 70 μmol/L
